Values from PubChem BioAssay AID743454 (Peter MacCallum Cancer Centre, 2014)

- Aim: 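Genes whose loss kills vorinostat-resistant colon cancer cells under vorinostat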 (primary screen)
- System: human HCT116-VR colon cancer cells, selected for vorinostat resistance
- Reagents: siRNA pool against human genes, 40 nM siRNA pool
- Time to read-out: vorinostat for 24 h, read-out about 72 h after transfection
- Challenge: vorinostat at 2.5 µM final
- Measured: 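Cell viability by CellTiter-Fluor and caspase 3/7 activity by luminescence, each scaled to mock wells per plate, duplicates averaged, then robust z-scored over all plates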
- Reading the numbers: viability robust z-score: higher = more viable cells than screen typical; caspase robust z-score: higher = more caspase 3/7 activity than screen typical
- Rule for the call: 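Hits are knock-downs in viability class RV1/RV2 or caspase class CA1/CA2, excluding ones that killed cells in the no-drug cell-count arm; hits then retested with single siRNAs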
The whole screen tested about 18,000 reagents; below is a random part of them. 450 of them (2.5%) were called active. 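Single biological run; no consistent viability z cut-off exists, so the class columns, not z-scores, define the calls.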 A number with no mark means an inactive call.

no.	Target gene	viability hit class	caspase hit class	viability robust z-score	caspase robust z-score
1	PHYHD1 (GeneID 254295)	no change	no change	-0.62	-0.48
2	NDOR1 (GeneID 27158)	no change	no change	-0.2	-1.34
3	PSMD7 (GeneID 5713)	no change	no change	-3.31	3.82
4	TMEM178A (GeneID 130733)	no change	no change	-0.34	2.73
5	TBKBP1 (GeneID 9755)	no change	no change	-2.05	1.09
6	SLC13A4 (GeneID 26266)	no change	no change	-0.46	3.62
7	KIR3DL3 (GeneID 115653)	no change	no change	-0.12	-0.81
8	LEAP2 (GeneID 116842)	no change	no change	-1.1	-1.08
9	NUMBL (GeneID 9253)	no change	no change	-1.94	1.24
10	EMX1 (GeneID 2016)	no change	no change	0.07	-0.59
11	ZCRB1 (GeneID 85437)	no change	no change	0.83	-0.5
12	SBK1 (GeneID 388228)	no change	no change	-0.97	-0.94
13	OTOS (GeneID 150677)	no change (active)	CA1 (caspase activation)	0.85	5.13
14	POLR3K (GeneID 51728)	no change	no change	-1.34	1.49
15	FERMT3 (GeneID 83706)	no change	no change	0.95	-0.12
16	ASB12 (GeneID 142689)	no change	no change	-0.45	-0.06
17	MINDY3 (GeneID 80013)	no change	no change	-0.11	-0.43
18	KCNK18 (GeneID 338567)	no change	no change	-0.7	-0.38
19	GRP (GeneID 2922)	RV2 (reduced viability) (active)	no change	-3.52	2.04
20	EPB41L5 (GeneID 57669)	no change	no change	0.02	0.34
21	LRCH4 (GeneID 4034)	no change	no change	-0.09	-0.78
22	AIRE (GeneID 326)	no change	no change	-0.44	-1.02
23	EMC4 (GeneID 51234)	no change	no change	-0.55	-0.84
24	TEAD4 (GeneID 7004)	no change	no change	0.1	0.84
25	ZNF423 (GeneID 23090)	no change	no change	0.26	-0.68
26	LRCH1 (GeneID 23143)	no change	no change	0.44	-0.35
27	HEPACAM (GeneID 220296)	no change	no change	-0.46	-0.57
28	HNRNPL (GeneID 3191)	no change	no change	-0.21	3.46

Entries listed above marked active (2):
Target gene	viability hit class	caspase hit class	viability robust z-score	caspase robust z-score
OTOS (GeneID 150677)	no change (active)	CA1 (caspase activation)	0.85	5.13
GRP (GeneID 2922)	RV2 (reduced viability) (active)	no change	-3.52	2.04

Next results follow:
no.	Target gene	viability hit class	caspase hit class	viability robust z-score	caspase robust z-score
29	RUSC1 (GeneID 23623)	no change	no change	-0.01	-0.9
30	SNED1 (GeneID 25992)	no change	no change	0.4	3.07
31	ZNF429 (GeneID 353088)	no change	no change	1.28	0.7
32	KRT82 (GeneID 3888)	no change	no change	0.08	1.06
33	COL13A1 (GeneID 1305)	no change	no change	-1.04	0.68
34	CFAP298 (GeneID 56683)	no change	no change	1.48	0.56
35	C19orf25 (GeneID 148223)	no change	no change	-0.13	-0.72
36	NIM1K (GeneID 167359)	no change	no change	0.08	-0.1
37	DCAF12 (GeneID 25853)	no change	no change	0.52	-0.65
38	COMMD3 (GeneID 23412)	no change	no change	0.41	-0.2
39	NR3C2 (GeneID 4306)	no change	no change	0.38	-0.19
40	PIP4P1 (GeneID 90809)	no change	no change	-0.01	-0.72
41	OR2B11 (GeneID 127623)	no change	no change	-1.24	0.26
42	SYNGR1 (GeneID 9145)	no change	no change	0.04	-0.4
43	TDRD3 (GeneID 81550)	no change	no change	-0.07	1.27
44	CENPL (GeneID 91687)	no change	no change	0.78	0.46
45	SLC29A1 (GeneID 2030)	no change	no change	-3.46	0.82
46	PSMD6 (GeneID 9861)	no change	no change	-3.92	1.98
47	LITAF (GeneID 9516)	no change	no change	0.56	-0.86
48	MMEL1 (GeneID 79258)	no change	no change	-1.41	1.49
49	B3GNT3 (GeneID 10331)	no change	no change	0.39	0.36
50	GRINA (GeneID 2907)	no change	no change	-0.28	2.25
51	GIN1 (GeneID 54826)	no change	no change	-0.5	1.19
52	NDST3 (GeneID 9348)	no change	no change	-1.4	-0.34
53	ACVR2B (GeneID 93)	no change	no change	-2.6	4.91
54	SYK (GeneID 6850)	no change	no change	-0.7	0.36
55	FXR2 (GeneID 9513)	no change	no change	-1.99	0.89
56	KRT80 (GeneID 144501)	no change	no change	-1.01	0.46
57	DPEP2 (GeneID 64174)	no change	no change	-0.2	-0.77
